Laboratory results as given in patent US10525159B2, “Liquid preparation for contact lenses comprising hydrolyzed hyaluronic acid derivative and cationic bactericide” (OPHTECS CORPORATION, priority 2016, dated 2020).

Assay: Absorptivity of fluorescence-labeled sample to SCL using fluorescence microscope (balafilcon A)
Details: 50 ppm in PBS, FIG. 2

Substance | relative fluorescence intensity 13 days after immersion compared with 1 day after immersion | relative fluorescence intensity 1 day after immersion, compared with Na hyaluronate and hydrolyzed hyaluronic acid (risk ratio of less than 5%) | relative fluorescence intensity 13 days after immersion, compared with Na hyaluronate and hydrolyzed hyaluronic acid (risk ratio of less than 5%)
hydrolyzed alkyl (C12-13) glyceryl hyaluronate [hydrolyzed hyaluronic acid derivative] | significantly different | significantly different | significantly different
hydrolyzed hyaluronic acid [reference compound] | not significantly different |  | 
sodium hyaluronate [Na hyaluronate, reference compound] | not significantly different |  | 
